4 molecules from the supplement of paper PMC9549374 can be followed below.

The other results are listed elsewhere or left out. No stated cut-off is given here; in the data, active = 2-fold of DMSO or more and inactive = the rest. Single values of this set are uncertain. Some low values are a fixed figure set by the source, not a measured ratio.

This assay deals with CM7/1-hgem mouse ES cell-derived cardiomyocytes. The experiment in a line: maximal number of mAG-hGem(1/110)-positive cardiomyocytes over 96 h, fold-change vs DMSO; higher = more cardiomyocyte cell cycle activity. As to conditions: 1 µM; 96 (max over 12 h time points) h.
`COc1ccc2cc3[n+](cc2c1OC)CCc1cc2c(cc1-3)OCO2`: the maximal number is inactive: 1.
As for `C#C[C@]1(O)CC[C@H]2[C@@H]3[C@H](C)CC4=C(CCC(=O)C4)[C@H]3CC[C@@]21C`, the figure is inactive: 1; as for `O=c1cc(-c2ccccc2)oc2cc(O)c(O)c(O)c12`, inactive: 1.
The value for `COc1ccc2nc3cc(Cl)ccc3c(Nc3cc(CN4CCCC4)c(O)c(CN4CCCC4)c3)c2n1` was inactive: 1.
